Source: patent US20240390403A1, “COMPOSITION AND METHODS FOR TREATING AN ANEURYSM” (Nectero Medical, Inc., priority 2023, published 2024)
For at least one compound, name, drawing or mass did not settle the structure. Some entries share one result that the patent states for a list of compounds.

Test system: porcine abdominal aortas
Test: opening angle experiment on porcine abdominal aortic rings
Settings: Example 12, n=6 rings; for mean opening angle: 2.49 mM (Glutaraldehyde 0.5% in PBS, pH 7.4), 3 hours at room temperature
Method: In this study, compounds of this disclosure were added to abdominal aortas in an opening angle experiment to determine how they would affect the aorta in vitro. Thus, to understand the ability of the compounds of this disclosure to bind to aortic elastin and determine their ability to affect the aorta and aneurysms.
Twelve porcine abdominal aortas were ordered and received. The infra-renal sections of these aortas were dissected, cleaned, rinsed, and then cut into rings measuring 3 mm in width. […] These rings were mixed up before testing to randomize them based on their location in the artery. They were then stored in 500 ml of saline. Analog solutions were prepared at the same molar concentration, but they were not normalized for gallic acid content as indicated in Table 1. These solutions of analogs were made using a solution containing about 26% iopamidol, a radioopaque contrast agent. […] All solutions were prepared one day prior to their use. […] For each solution, 6 aortic rings were placed in a pre-labeled 50 ml conical tube containing 20 ml of the solution, resulting in a volume to tissue ratio of approximately 3.3 ml of solution per ring. The tubes were then incubated at room temperature for 3 hours, with rotation every 30-40 minutes.
After the treatment, while still in the tube, the solution was decanted, and the rings were rinsed three times in PBS and then suspended in PBS. The rings were placed in a 6-well plate, with 2 rings per well and 3 ml of PBS in each well. Each ring was opened with a single cut using fine scissors and laid back in the well. The rings were allowed 15 minutes to recoil in the PBS at room temperature, with gentle shaking every 5 minutes.
Photographs of the rings were taken, and their opening angles were measured using Image J software. The data were then plotted and statistical analyses were performed for comparison.
All solutions were prepared one day prior to their use.
For this experiment, nine aortic rings were placed in 30 ml of a pre-prepared solution within a 50 ml conical tube. […] The tubes were then incubated at room temperature for 3 hours, with rotations occurring every 30-40 minutes. After the incubation period, while still in the tubes, the solution was poured off, and the rings were rinsed three times with PBS and then left suspended in PBS. The rings were then transferred to a 6-well plate, with 2 rings per well and 3-4 ml of PBS in each well. Each ring was opened with a single cut using fine scissors and laid flat in the well. They were allowed to recoil for 15 minutes in PBS at room temperature, with gentle shaking every 5 minutes. Photographs were taken, and the opening angle was measured using the Image J software.

Structure (SMILES): O=CCCCC=O [Glutaraldehyde, reference compound]
- mean opening angle: less than 1 degrees

Structure (SMILES): O=C(O[C@H]1[C@H](OC(=O)c2cc(O)c(O)c(O)c2)[C@@H](OC(=O)c2cc(O)c(O)c(O)c2)[C@H](OC(=O)c2cc(O)c(O)c(O)c2)[C@@H](OC(=O)c2cc(O)c(O)c(O)c2)[C@H]1OC(=O)c1cc(O)c(O)c(O)c1)c1cc(O)c(O)c(O)c1 [HG-inositol, polygalloyl inositol]
- mean opening angle: less than 1 degrees

Structure (SMILES): O=C(OC[C@@H](OC(=O)c1cc(O)c(O)c(O)c1)[C@@H](OC(=O)c1cc(O)c(O)c(O)c1)[C@H](OC(=O)c1cc(O)c(O)c(O)c1)[C@@H](COC(=O)c1cc(O)c(O)c(O)c1)OC(=O)c1cc(O)c(O)c(O)c1)c1cc(O)c(O)c(O)c1 [HG-mannitol, hexagalloyl mannitol]
- mean opening angle: less than 1 degrees
- statistical comparison of mean opening angles among analogs (FIG. 3) (2.49 mM): statistically significant lower opening angles

Structure (SMILES): O=C(OC[C@H]1O[C@@H](OC(=O)c2cc(O)c(O)c(O)c2)[C@H](OC(=O)c2cc(O)c(O)c(O)c2)[C@@H]1OC(=O)c1cc(O)c(O)c(O)c1)c1cc(O)c(O)c(O)c1 [TG-ribose, polygalloyl ribose]
- mean opening angle: less than 1 degrees
